Test results from paper PMC8398451, “Molecular Engineering of Curcumin, an Active Constituent of Curcuma longa L. (Turmeric) of the Family Zingiberaceae with Improved Antiproliferative Activity” (Plants, 2021).

Tested on: 60 NCI cancer cell lines
Experiment: NCI antiproliferative assay, summary over all lines
Assay type: cell-based
Conditions: one dose 10 µM; for Number of cell lines with better inhibition than curcumin: of the 56 cell lines in common

Row | Structure (SMILES) | Number of cell lines with <50% GIs [cell lines] | Number of cell lines with better inhibition than curcumin [cell lines] | Number of cell lines with % GIs of ≥68% (active) [cell lines] | Number of cell lines with >50% GIs (and <68% GIs) [cell lines]
1 | COc1ccc(/C=C/c2cc(/C=C/c3ccc(OC)c(O)c3)n(-c3cccc(Cl)c3)c(=S)n2)cc1O [3a] | 56 | – | – | –
2 | COc1ccc(NC(=O)n2nc(/C=C/c3ccc(O)c(OC)c3)cc2/C=C/c2ccc(O)c(OC)c2)cc1 [3b] | 9 | 35 | 32 | 13
3 | COc1cc(/C=C/c2cc(/C=C/c3ccc(O)c(OC)c3)n(C(=O)Nc3ccc(C(F)(F)F)cc3)n2)ccc1O [3c] | 17 | 27 | 25 | 12
